Publication doi:10.1101/2022.02.02.478779
Results are given in words; binding and its absence hold for the method and conditions named. Some entries that bind do so weakly or less than the wild type.

T1: Pex5 (S. cerevisiae) (UniProt P35056)
T1 sequence: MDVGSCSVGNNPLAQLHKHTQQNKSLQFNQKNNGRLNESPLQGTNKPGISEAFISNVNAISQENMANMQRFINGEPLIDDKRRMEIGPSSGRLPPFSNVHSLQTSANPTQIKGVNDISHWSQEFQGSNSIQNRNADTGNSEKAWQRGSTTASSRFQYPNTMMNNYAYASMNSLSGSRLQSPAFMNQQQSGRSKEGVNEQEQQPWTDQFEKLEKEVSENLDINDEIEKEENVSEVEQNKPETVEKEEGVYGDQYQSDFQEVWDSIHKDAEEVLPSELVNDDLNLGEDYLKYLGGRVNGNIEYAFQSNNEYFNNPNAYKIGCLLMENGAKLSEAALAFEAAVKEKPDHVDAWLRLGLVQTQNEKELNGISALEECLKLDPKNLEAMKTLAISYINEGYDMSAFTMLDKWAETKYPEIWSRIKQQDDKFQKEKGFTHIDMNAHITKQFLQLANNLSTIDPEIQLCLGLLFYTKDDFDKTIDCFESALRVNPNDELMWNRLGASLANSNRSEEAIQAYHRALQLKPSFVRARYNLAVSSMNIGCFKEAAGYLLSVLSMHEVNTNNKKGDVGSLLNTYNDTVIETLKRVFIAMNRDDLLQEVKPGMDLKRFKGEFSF

T2: Pex9 (S. cerevisiae) (UniProt Q04364)
T2 sequence: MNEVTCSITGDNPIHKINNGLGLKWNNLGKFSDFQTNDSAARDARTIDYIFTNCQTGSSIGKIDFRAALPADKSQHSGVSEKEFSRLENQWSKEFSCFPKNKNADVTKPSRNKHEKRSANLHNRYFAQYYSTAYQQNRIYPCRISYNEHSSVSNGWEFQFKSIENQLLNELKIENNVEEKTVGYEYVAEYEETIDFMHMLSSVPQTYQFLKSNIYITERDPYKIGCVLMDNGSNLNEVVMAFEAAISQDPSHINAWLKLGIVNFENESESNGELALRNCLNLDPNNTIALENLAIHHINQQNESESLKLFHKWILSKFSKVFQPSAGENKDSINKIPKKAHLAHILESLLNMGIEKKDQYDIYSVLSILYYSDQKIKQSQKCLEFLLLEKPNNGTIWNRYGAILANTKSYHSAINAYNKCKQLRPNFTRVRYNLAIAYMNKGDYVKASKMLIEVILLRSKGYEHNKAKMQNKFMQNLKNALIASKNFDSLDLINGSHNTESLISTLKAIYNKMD

B1: Fsh3 (protein, UniProt Q99369 1-266)
chain: MSEKKKVLMLHGFVQSDKIFSAKTGGLRKNLKKLGYDLYYPCAPHSIDKKALFQSESEKGRDAAKEFNTSATSDEVYGWFFRNPESFNSFQIDQKVFNYLRNYVLENGPFDGVIGFSQGAGLGGYLVTDFNRILNLTDEQQPALKFFISFSGFKLEDQSYQKEYHRIIQVPSLHVRGELDEVVAESRIMALYESWPDNKRTLLVHPGAHFVPNSKPFVSQVCNWIQGITSKEGQEHNAQPEVDRKQFDKPQLEDDLLDMIDSLGKL
B2: Mls2 (enzyme, UniProt P21826 1-554)
chain: MVKISLDNTALYADIDTTPQFEPSKTTVADILTKDALEFIVLLHRTFNSTRKQLLANRSNLQSKLDSGEYRFDFLPETEQIRNDPTWQGAIPAPGLINRSSEITGPPLRNMLVNALNAEVTTYMTDFEDSSSPTWENMIYGQVNLYDAIRNQIDFKTPRKEYRLKDDISRLPTLIVRPRGWHMVEKHLYIDDEPISASIFDFGLYFYHNAKELVKIGKGPYFYLPKMEHHMEVKLWNDIFCVAQDFIGMPRGTIRATVLIETLPAAFQMEEIIYQIREHSSGLNCGRWDYIFSTIKKLRNLPEHVLPNRDLVTMTSPFMDAYVKRLINTCHRRGVHAMGGMAAQIPIKDDPKANEAAMNKVRNDKIREMKNGHDGSWVAHPALAPICNEVFSNMGTANQIYFVPDVHVTSSDLLNTKIQDAQVTTEGIRVNLDIGLQYMEAWLRGSGCVPINHLMEDAATAEVSRCQLYQWVKHGVVLSDTGDKVTPELTAKILNEETAKLASASPLGEKNKFALAAKYFLPEVTGKIFSDFLTTLLYDEIIKPSAKPVDLSKL
B3: Mls1 (enzyme, UniProt P30952 1-554)
chain: MVKVSLDNVKLLVDVDKEPFFKPSSTTVGDILTKDALEFIVLLHRTFNNKRKQLLENRQVVQKKLDSGSYHLDFLPETANIRNDPTWQGPILAPGLINRSTEITGPPLRNMLINALNAPVNTYMTDFEDSASPTWNNMVYGQVNLYDAIRNQIDFDTPRKSYKLNGNVANLPTIIVRPRGWHMVEKHLYVDDEPISASIFDFGLYFYHNAKELIKLGKGPYFYLPKMEHHLEAKLWNDVFCVAQDYIGIPRGTIRATVLIETLPAAFQMEEIIYQLRQHSSGLNCGRWDYIFSTIKRLRNDPNHILPNRNQVTMTSPFMDAYVKRLINTCHRRGVHAMGGMAAQIPIKDDPAANEKAMTKVRNDKIRELTNGHDGSWVAHPALAPICNEVFINMGTPNQIYFIPENVVTAANLLETKIPNGEITTEGIVQNLDIGLQYMEAWLRGSGCVPINNLMEDAATAEVSRCQLYQWVKHGVTLKDTGEKVTPELTEKILKEQVERLSKASPLGDKNKFALAAKYFLPEIRGEKFSEFLTTLLYDEIVSTKATPTDLSKL
B4: Afr1 (protein, UniProt P33304 1-620)
chain: MEGSYLSAQENQPIPERLIPRSNSTSNLFALSSTFSKLNVRNDADYNYSNPNKKRHIYSGEIDCRSVTAARKFPVRSCSMTAAQQRKRTALFTVRERNSYHEGFNNDQDYVSQYQKPQYTFGVYKELTPYQLQRSKMKRSFQFPNGEIYKPKLDGKCTHSLKKPELNSRDSSLFKFSEKKGRNLSKDFVGPHNGTSVIHIPPNDTGYGVNSLELNTSVPSTIKSSVSSTSPISAVNTLTSLPESQTDDDDGYENKTVTISYCFENTVNEKHGSHIEKLDLSTKEKTKPTTNSGLFDRKKKTILGTEKYRCIKSQSKLKLGSVLKKLWRTSGNSNTKHGKKDTKRRRIPIDDMVTHSDGNSEAENDIELMDANLDGIEFDDDETLMDTDSIFDDLLSKENDKYDLRRRQLEIRQKLHETSHNDDGKVSFRDTEKHNVNEGLIDKTIIEEFSKLGEYIIDTRNQPPPRSSKRPSLDDNESARYFYNISTDLRQSLSGPISLPMHVGNDMVNRLRNDWEYIRFEDRRNSLPDSSFDKVETPPKPIKKDVRFAKEVCLASTWSSNAYERANPEFIMNRHRLLWMMKVHPSMNSAMNEIKLELNSYKKNEMVVHENSKCFTHYLI
B5: Mdh3 (enzyme, UniProt P32419 1-343)
chain: MVKVAILGASGGVGQPLSLLLKLSPYVSELALYDIRAAEGIGKDLSHINTNSSCVGYDKDSIENTLSNAQVVLIPAGVPRKPGLTRDDLFKMNAGIVKSLVTAVGKFAPNARILVISNPVNSLVPIAVETLKKMGKFKPGNVMGVTNLDLVRAETFLVDYLMLKNPKIGQEQDKTTMHRKVTVIGGHSGETIIPIITDKSLVFQLDKQYEHFIHRVQFGGDEIVKAKQGAGSATLSMAFAGAKFAEEVLRSFHNEKPETESLSAFVYLPGLKNGKKAQQLVGDNSIEYFSLPIVLRNGSVVSIDTSVLEKLSPREEQLVNTAVKELRKNIEKGKSFILDSSKL

Each binder was assayed against T1, Pex5 (S. cerevisiae) (assay: two-hybrid).

binding | Binder
no binding | B1
no binding | B2
binds | KATPTDLSKL (peptide, UniProt P30952 545-554) [last 10 amino acids of Mls1 (aa545-554)]
no binding | B3
no binding | B4
binds | LDMIDSLGKL (peptide, UniProt Q99369 257-266) [last 10 amino acids of Fsh3 (aa257-266)]

What follows are binders tested against T2, Pex9 (S. cerevisiae) (assay: two-hybrid).

binding | Binder
binds | KSFILDSSKL (peptide, UniProt P32419 334-343) [last 10 amino acids of Mdh3 (aa334-343)]
binds | B1
binds | B2
binds | B3
no binding | B4
no binding | B5
